Data published in paper PMC10883267 (2023).
Results are given in words; binding and its absence hold for the method and conditions named. In cells and extracts the contact can be indirect. Some binding calls cover weakened binding; strength is not graded here.

Sequences of proteins named here, by UniProt entry; tags and fusion partners are left off. Residues count along the entry.
UniProt Q9DFS6, residues 34-215: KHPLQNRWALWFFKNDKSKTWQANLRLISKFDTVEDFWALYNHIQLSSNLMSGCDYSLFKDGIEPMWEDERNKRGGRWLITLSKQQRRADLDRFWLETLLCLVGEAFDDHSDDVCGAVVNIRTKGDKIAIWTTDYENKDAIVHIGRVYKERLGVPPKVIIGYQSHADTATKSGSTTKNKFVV
UniProt Q13541, residues 50-83: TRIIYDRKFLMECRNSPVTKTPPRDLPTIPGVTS

T1: human eIF4E1B (60-242) (human) (UniProt A6NMX2)
T1 sequence: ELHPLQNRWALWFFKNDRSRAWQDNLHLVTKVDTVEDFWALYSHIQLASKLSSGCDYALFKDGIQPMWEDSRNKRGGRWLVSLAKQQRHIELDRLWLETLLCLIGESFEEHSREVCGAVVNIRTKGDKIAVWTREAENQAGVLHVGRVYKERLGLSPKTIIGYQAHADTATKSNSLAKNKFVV

T2: mouse eIF4E1B (63-244) (mouse) (UniProt Q3UTA9)
T2 sequence: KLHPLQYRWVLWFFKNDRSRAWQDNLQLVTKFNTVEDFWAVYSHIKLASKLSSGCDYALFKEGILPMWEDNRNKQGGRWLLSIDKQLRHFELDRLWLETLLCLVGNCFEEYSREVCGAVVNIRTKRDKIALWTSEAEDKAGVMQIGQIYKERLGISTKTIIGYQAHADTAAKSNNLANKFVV

T3: mouse eIF4E1B (63-244) Lys108 to Glu (mouse) (UniProt Q3UTA9)
T3 sequence: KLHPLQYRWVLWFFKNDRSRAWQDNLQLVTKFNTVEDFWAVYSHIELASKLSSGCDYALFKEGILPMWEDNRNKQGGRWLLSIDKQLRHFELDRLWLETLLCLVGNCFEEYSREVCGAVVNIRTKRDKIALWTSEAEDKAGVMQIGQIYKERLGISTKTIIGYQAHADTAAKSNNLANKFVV

T4: mouse eIF4E1B (63-244) Lys112 to Asn (mouse) (UniProt Q3UTA9)
T4 sequence: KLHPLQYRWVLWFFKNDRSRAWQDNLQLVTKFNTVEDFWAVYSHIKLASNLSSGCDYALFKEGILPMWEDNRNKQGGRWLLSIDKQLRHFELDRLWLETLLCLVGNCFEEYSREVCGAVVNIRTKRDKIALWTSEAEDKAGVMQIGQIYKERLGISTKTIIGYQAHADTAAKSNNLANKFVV


Key:
Assay in all cases: pull-down; His- and MBP-tagged eIF4E from E. coli lysate held on HisPur Ni-NTA magnetic beads (1 h, 4 °C), then soluble fraction of E. coli lysate with MBP-tagged 4EBM (1 h, 4 °C); 50 mM Tris-HCl pH 7.5, 100 mM NaCl, 1 mM DTT, 20 mM imidazole, 0.01% Tween-20; eluted with 500 mM imidazole; SDS-PAGE, Coomassie, quantified with Fiji
[1] = target: T1, human eIF4E1B (60-242) (human)
[2] = target: T2, mouse eIF4E1B (63-244) (mouse)
[3] = target: zebrafish eIF4Ea (34-215) (zebrafish) (UniProt Q9DFS6)
[4] = target: T3, mouse eIF4E1B (63-244) Lys108 to Glu (mouse)
[5] = target: T4, mouse eIF4E1B (63-244) Lys112 to Asn (mouse)

| binding [1] | binding [2] | binding [3] | binding [4] | binding [5] | Molecule |
| --- | --- | --- | --- | --- | --- |
| binds | binds | binds | – | – | eIF4E-binding motif of human eIF4EBP1 (50-83) (from UniProt Q13541 50-83) (domain or fragment) |
| binds | binds | binds | binds | binds | PHRYTKEELLDIKELPHSKQRPSCLSEKYDSDGVWDP (domain or fragment, UniProt Q9NRA8 27-63) [eIF4E-binding motif of human eIF4ENIF1 (27-63)] |
